Measurements published in the supplement of paper PMC10849652.
Some of the results follow.

Sequences of proteins named here, by UniProt entry; tags and fusion partners are left off. A change or cut given only in a name is not applied to a line headed by its entry.
UniProt O14950, whole entry, looked up: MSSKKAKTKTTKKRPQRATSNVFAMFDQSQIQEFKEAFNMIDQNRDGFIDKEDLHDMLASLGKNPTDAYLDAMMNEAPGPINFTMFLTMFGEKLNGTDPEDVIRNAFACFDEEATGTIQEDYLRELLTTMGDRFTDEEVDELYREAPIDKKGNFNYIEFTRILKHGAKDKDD
UniProt P35579, whole entry, looked up: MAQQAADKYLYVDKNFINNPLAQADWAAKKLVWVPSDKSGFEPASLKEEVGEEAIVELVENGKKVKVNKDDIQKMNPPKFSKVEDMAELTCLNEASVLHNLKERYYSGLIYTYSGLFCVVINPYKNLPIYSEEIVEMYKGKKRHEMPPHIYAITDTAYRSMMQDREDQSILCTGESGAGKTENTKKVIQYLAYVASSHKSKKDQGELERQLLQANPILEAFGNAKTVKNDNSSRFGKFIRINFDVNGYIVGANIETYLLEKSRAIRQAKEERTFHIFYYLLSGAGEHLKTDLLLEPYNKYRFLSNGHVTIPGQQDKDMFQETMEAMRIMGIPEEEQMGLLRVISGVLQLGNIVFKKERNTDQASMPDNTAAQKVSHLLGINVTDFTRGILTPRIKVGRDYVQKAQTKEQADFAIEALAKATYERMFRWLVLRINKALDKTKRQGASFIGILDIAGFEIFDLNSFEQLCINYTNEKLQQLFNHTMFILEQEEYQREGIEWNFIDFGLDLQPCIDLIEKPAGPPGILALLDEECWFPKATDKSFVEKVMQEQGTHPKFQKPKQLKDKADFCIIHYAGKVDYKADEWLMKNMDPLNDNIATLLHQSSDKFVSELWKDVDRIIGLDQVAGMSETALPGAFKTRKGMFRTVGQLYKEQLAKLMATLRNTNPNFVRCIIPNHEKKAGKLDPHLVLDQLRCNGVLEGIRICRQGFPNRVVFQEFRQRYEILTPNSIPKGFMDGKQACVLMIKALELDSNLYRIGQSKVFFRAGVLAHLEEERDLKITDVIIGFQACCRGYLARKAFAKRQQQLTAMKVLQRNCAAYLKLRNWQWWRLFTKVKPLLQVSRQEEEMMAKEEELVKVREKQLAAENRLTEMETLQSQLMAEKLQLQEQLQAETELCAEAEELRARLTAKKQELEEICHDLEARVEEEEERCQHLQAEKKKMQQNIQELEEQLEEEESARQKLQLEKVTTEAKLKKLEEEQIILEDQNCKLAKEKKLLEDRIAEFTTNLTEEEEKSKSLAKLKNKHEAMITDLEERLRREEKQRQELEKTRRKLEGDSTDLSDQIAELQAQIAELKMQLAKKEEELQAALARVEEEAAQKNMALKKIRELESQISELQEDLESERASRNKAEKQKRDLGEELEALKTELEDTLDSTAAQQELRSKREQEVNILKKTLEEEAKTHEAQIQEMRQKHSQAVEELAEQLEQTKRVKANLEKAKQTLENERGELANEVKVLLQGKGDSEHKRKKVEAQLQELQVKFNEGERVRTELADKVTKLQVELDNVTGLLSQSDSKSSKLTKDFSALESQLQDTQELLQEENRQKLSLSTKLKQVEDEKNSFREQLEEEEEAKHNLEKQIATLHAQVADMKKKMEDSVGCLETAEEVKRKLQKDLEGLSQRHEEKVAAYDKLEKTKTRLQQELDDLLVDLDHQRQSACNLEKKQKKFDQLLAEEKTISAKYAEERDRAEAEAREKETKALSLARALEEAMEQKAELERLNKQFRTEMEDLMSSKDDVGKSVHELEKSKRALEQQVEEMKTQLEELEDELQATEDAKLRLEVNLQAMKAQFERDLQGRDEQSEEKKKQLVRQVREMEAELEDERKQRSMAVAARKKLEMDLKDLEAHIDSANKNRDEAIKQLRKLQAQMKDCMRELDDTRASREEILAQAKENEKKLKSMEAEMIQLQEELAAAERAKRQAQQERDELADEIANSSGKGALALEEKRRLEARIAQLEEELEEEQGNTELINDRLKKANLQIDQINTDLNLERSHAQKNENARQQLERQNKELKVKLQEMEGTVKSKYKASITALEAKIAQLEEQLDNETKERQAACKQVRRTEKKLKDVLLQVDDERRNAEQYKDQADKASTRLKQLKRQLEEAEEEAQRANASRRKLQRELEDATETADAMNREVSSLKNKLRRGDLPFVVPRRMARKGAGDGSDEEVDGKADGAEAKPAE
UniProt Q4G0N4: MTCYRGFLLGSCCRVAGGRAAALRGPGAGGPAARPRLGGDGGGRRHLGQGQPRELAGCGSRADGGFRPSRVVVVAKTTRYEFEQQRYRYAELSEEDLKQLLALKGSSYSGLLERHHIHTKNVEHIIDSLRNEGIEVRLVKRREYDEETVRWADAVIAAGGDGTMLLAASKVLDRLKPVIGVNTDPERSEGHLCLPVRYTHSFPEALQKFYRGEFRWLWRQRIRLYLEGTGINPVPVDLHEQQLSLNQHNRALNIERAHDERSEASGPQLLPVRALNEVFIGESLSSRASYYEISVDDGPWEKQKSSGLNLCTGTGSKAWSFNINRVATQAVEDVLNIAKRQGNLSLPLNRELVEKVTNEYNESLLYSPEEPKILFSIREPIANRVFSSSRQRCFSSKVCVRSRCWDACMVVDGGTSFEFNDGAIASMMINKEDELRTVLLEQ
UniProt P35580, whole entry, looked up: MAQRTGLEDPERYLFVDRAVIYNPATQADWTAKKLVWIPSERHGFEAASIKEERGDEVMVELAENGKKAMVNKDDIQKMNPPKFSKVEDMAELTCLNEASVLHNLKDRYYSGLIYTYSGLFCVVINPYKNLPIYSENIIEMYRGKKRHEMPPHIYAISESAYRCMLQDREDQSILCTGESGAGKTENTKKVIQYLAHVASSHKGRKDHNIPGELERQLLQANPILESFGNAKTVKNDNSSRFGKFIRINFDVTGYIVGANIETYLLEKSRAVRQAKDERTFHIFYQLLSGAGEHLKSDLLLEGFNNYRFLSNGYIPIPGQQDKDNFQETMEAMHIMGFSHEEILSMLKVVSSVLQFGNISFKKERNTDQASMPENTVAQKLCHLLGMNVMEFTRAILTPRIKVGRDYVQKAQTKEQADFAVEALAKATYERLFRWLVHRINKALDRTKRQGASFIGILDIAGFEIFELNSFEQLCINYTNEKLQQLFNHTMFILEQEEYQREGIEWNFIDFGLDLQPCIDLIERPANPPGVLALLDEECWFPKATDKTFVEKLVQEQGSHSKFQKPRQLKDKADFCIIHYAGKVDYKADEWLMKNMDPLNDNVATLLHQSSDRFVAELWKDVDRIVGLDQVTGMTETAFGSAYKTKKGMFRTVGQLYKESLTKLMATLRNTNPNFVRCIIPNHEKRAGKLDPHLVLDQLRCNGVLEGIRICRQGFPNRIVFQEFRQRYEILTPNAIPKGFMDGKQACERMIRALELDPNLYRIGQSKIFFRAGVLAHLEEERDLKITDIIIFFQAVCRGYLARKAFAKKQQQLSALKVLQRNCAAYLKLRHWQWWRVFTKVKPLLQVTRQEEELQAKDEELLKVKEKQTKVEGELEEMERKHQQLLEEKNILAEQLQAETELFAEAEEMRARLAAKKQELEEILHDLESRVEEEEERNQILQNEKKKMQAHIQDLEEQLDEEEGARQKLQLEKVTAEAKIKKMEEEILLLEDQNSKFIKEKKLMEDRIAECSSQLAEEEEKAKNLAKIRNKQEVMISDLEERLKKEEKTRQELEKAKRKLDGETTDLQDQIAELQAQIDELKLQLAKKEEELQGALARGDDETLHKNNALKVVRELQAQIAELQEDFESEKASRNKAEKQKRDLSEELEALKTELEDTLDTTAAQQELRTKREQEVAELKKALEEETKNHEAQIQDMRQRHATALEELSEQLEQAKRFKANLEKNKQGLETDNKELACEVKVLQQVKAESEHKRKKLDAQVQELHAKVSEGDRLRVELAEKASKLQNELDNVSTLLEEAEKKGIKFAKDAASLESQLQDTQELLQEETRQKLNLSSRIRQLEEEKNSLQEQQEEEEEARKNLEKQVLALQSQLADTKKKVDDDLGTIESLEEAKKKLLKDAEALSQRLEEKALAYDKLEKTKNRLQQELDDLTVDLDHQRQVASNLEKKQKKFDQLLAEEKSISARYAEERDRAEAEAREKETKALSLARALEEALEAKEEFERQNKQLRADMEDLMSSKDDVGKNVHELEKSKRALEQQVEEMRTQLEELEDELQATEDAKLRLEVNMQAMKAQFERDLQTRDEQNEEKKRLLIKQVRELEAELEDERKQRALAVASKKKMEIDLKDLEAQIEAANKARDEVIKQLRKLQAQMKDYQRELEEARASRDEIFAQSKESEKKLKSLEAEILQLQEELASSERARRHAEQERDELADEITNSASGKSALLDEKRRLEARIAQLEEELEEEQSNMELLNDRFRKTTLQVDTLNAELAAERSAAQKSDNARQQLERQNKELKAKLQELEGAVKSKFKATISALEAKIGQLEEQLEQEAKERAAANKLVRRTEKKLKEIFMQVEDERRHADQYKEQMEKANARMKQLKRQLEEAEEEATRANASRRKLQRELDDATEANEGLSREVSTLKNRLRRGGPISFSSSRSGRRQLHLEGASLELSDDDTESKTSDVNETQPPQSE
UniProt Q9BRA0: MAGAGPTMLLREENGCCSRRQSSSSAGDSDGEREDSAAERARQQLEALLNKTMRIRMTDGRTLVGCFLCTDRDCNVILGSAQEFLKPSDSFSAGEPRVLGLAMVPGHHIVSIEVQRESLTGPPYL
UniProt Q96H55, whole entry, looked up: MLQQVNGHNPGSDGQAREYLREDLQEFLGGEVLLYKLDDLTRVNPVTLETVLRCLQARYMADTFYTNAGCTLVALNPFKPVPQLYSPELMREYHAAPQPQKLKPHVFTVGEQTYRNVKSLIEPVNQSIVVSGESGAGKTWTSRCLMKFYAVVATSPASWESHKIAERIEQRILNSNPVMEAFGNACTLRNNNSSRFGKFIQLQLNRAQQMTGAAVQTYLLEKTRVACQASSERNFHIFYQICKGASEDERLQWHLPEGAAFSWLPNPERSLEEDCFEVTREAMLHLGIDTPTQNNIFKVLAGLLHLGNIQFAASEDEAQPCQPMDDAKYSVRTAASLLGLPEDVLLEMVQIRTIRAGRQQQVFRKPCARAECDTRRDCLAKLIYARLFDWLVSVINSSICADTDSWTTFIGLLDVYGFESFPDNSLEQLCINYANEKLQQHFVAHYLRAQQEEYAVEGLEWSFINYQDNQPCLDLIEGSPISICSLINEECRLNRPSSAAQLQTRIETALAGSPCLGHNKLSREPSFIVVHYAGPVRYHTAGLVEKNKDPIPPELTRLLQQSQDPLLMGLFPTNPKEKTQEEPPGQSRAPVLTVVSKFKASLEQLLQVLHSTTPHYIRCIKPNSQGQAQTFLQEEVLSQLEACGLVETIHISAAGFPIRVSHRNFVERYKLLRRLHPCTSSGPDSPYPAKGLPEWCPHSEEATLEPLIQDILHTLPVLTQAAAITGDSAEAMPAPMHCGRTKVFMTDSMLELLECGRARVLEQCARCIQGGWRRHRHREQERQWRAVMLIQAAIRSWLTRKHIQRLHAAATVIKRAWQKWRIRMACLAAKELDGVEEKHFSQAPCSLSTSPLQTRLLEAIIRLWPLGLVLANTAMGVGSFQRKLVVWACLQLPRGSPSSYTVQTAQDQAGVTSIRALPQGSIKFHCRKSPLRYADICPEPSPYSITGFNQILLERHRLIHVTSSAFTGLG
UniProt Q969V5: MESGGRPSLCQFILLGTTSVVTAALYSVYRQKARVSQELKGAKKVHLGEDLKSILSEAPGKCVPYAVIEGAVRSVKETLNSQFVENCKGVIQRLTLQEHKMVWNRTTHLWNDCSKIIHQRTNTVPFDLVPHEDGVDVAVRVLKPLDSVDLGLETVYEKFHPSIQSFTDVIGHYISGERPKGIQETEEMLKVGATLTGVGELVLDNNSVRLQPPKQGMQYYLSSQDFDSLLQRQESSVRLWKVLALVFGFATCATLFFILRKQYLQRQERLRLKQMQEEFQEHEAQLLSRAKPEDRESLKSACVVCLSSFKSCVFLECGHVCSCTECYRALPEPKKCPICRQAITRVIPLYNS
UniProt P17050: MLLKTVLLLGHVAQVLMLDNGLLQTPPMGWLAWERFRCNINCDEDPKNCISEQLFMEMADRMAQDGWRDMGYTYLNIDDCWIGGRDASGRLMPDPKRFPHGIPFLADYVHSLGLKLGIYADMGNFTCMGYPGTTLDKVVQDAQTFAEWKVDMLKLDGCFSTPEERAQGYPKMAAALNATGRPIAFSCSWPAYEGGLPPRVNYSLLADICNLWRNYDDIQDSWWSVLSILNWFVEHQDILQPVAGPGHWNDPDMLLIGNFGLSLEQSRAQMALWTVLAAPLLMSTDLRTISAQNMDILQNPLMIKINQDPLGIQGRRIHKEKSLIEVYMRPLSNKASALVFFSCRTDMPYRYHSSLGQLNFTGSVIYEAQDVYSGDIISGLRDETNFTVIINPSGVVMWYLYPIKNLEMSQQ

Tests used:
Assay in all cases: log2 fold change, soluble protein after heating vs DMSO (PISA); higher = thermal stabilisation; K562 lysate, 10 uM; active = over 0.2 and 3.5 SD of the protein, either way, in both replicates (recomputed)
[1] = compound: C#Cc1cccc(Nc2ncnc3cc(OCCOC)c(OCCOC)cc23)c1 [erlotinib]
Procedure, shortened: (§1)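 Thermal stability, expressed as log-two fold change relative to solvent controls, is given from duplicates. Crude K562 extract in PBS pH 7.4 with 1 mM MgCl2, at 1 mg/mL protein, was treated with 10 μM compound for 30 min and heated in aliquots for 3 min across 48°C-58°C. After pooling, adjustment to 0.5% NP-40 at 4°C and centrifugation at 21,000xg for 90 min, supernatant protein was measured by TMTpro 16plex LC-MS/MS with channel sums equalised.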

[2] = compound: C/C(=N\NC(=O)C1=CC(=CC=C1)S(=O)(=O)N2CCOCC2)/C3=C(C=CC(=C3)Cl)O
Procedure, shortened: as §1

[3] = compound: C1=CC(=CC=C1C2=NC3=C(N2)C=C(C=C3)C(=O)N)OC4=CC=C(C=C4)Cl
Procedure, shortened: as §1

[4] = compound: C1=CC2=C(C=CC(=C2)/C=C\3/C(=O)NC(=NCC4=CC=CS4)S3)N=C1
Procedure, shortened: as §1

[5] = compound: C1=CC2=NC=CN=C2C=C1/C=C/3\C(=O)NC(=O)S3
Procedure, shortened: as §1

[6] = compound: C1=CC=C(C=C1)C2=NC(=C(N2)C3=CC=NC=C3)C4=CC(=C(C=C4)Cl)O
Procedure, shortened: as §1

[7] = compound: C1=CC=C2C(=C1)C3=NNC4=CC=CC(=C43)C2=O
Procedure, shortened: as §1

[8] = compound: C1CCN(C1)C(=O)NC2=CC=CC(=C2)NC3=NC=C(C(=N3)NCCC4=CN=CN4)Br
Procedure, shortened: as §1

[9] = compound: C1CN(CCC1(CC2=CC=C(C=C2)Cl)N)C3=NC=NC4=C3C=CN4
Procedure, shortened: as §1

[10] = compound: C1COCCN1CCN2C3=CC=CC=C3N=C2NC(=O)C4=CC(=CC=C4)[N+](=O)[O-] [IRAK-1-4 Inhibitor I]
Procedure, shortened: as §1

[11] = compound: C=CC(=O)N1CCC[C@@H](n2nc(-c3ccc(Oc4ccccc4)cc3)c3c(N)ncnc32)C1 [ibrutinib]
Procedure, shortened: as §1

[12] = compound: CC(=O)c1cnc2ccc(-c3cc(Cl)c(O)c(Cl)c3)nc2c1N[C@H]1CC[C@H](CN(C)C)CC1
Procedure, shortened: as §1

[13] = compound: CC(C)(C)Cn1c(N)nc2ccc(-c3[nH]c(C(C)(C)C)nc3-c3ccc(F)cc3)nc21 [ralimetinib]
Procedure, shortened: as §1

[14] = compound: CC(C)(O)CC(=O)NCCn1ccc2ncnc(Nc3ccc(Oc4cccc(C(F)(F)F)c4)c(Cl)c3)c21
Procedure, shortened: as §1

[15] = compound: CC(C)C1=C2N=C(C=C(N2N=C1)NCC3=CC=CC=C3)NCCCCCCN
Procedure, shortened: as §1

[16] = compound: CC1=C(C(CC(=O)N1)C2=CC=C(C=C2)C(F)(F)F)C(=O)NC3=C(C=C4C(=C3)C=NN4)F
Procedure, shortened: as §1

[17] = compound: CC1=C(C2=C(C=C1)C(=O)C3=CC=CC=C3N2CCCN)C
Procedure, shortened: as §1

[18] = compound: CC1=C(C=C(C=C1)NC(=O)C2=CC(=CC=C2)C(C)(C)C#N)NC3=CC4=C(C=C3)N=CN(C4=O)C
Procedure, shortened: as §1

[19] = compound: CC1=C(C=C(C=C1)NC(=O)C2=CC(=CC=C2)N(C)C)NC(=O)C3=CC=C(C=C3)O
Procedure, shortened: as §1

[20] = compound: CC1=CC=C(C=C1)SC2=C3C=C(SC3=CN=C2)C(=O)N
Procedure, shortened: as §1

Measured: log2 fold change

NCOA5 (UniProt Q9HCD5)
inactive: [1] -0.03 | [2] -0.036 | [3] 0.117 | [4] -0.021 | [5] -0.072 | [6] 0.068 | [7] -0.04 | [8] -0.034 | [9] -0.031 | [10] 0.018 | [11] 0.105 | [12] 0.049 | [13] -0.091 | [14] 0.04 | [15] -0.015 | [16] -0.145 | [17] 0.017 | [18] 0.046 | [19] -0.101 | [20] 0.014

NADK (UniProt O95544)
inactive: [1] 0.002 | [2] -0.027 | [3] 0 | [4] -0.023 | [5] 0.084 | [6] 0.011 | [7] -0.047 | [8] -0.01 | [9] -0.041 | [10] -0.019 | [11] -0.018 | [12] -0.021 | [13] 0.016 | [14] -0.039 | [15] -0.04 | [16] 0.001 | [17] -0.028 | [18] 0.028 | [19] 0.011 | [20] 0.016

MYL12B (UniProt O14950)
inactive: [1] -0.027 | [2] -0.081 | [3] 0.008 | [4] 0.013 | [5] 0.019 | [6] 0.021 | [7] 0.002 | [8] 0.012 | [9] 0.031 | [10] -0.004 | [11] -0.004 | [12] 0.014 | [13] -0.001 | [14] 0.005 | [15] -0.02 | [16] -0.007 | [17] 0.005 | [18] 0.036 | [19] 0 | [20] -0.005

MYH9 (UniProt P35579)
inactive: [1] -0.015 | [2] -0.018 | [3] 0.026 | [4] -0.006 | [5] -0.015 | [6] -0.002 | [7] -0.001 | [8] 0.003 | [9] 0.003 | [10] -0.001 | [11] -0.012 | [12] -0.018 | [13] -0.002 | [14] -0.024 | [15] 0 | [16] -0.01 | [17] -0.016 | [18] -0.002 | [19] -0.01 | [20] -0.01

NACC1 (UniProt Q96RE7)
inactive: [1] -0.006 | [2] 0.038 | [3] 0.036 | [4] -0.023 | [5] -0.004 | [6] 0.01 | [7] -0.011 | [8] 0.023 | [9] -0.014 | [10] 0.009 | [11] -0.015 | [12] -0.001 | [13] 0.009 | [14] -0.003 | [15] -0.014 | [16] 0.039 | [17] -0.016 | [18] -0.022 | [19] 0.009 | [20] -0.022

NCKAP1L (UniProt P55160)
inactive: [1] 0.005 | [2] -0.06 | [3] -0.006 | [4] 0.196 | [5] 0.055 | [6] -0.032 | [7] -0.156 | [8] 0.06 | [9] 0.084 | [10] 0.06 | [11] -0.18 | [12] 0.021 | [13] 0.025 | [14] -0.04 | [15] -0.111 | [16] -0.051 | [17] -0.089 | [18] -0.012 | [19] 0.04 | [20] 0.025

NADK2 (UniProt Q4G0N4)
inactive: [1] 0.005 | [2] -0.024 | [3] 0.011 | [4] 0.104 | [5] -0.026 | [6] -0.003 | [7] -0.017 | [8] -0.019 | [9] 0.031 | [10] 0.025 | [11] -0.017 | [12] -0.006 | [13] 0.005 | [14] -0.03 | [15] -0.02 | [16] -0.007 | [17] 0.008 | [18] 0.024 | [19] 0.023 | [20] 0.042

MYH10 isoform 3 (UniProt P35580)
inactive: [1] -0.005 | [2] -0.022 | [3] 0.022 | [4] -0.016 | [5] -0.006 | [6] 0.013 | [7] -0.015 | [8] 0.004 | [9] 0.013 | [10] 0.001 | [11] -0.016 | [12] -0.005 | [13] 0 | [14] -0.05 | [15] -0.004 | [16] -0.012 | [17] 0.01 | [18] 0.007 | [19] -0.011 | [20] -0.013

NAA38 isoform 2 (UniProt Q9BRA0)
inactive: [1] 0.049 | [2] -0.065 | [3] 0.013 | [4] 0.019 | [5] -0.045 | [6] -0.055 | [7] 0.008 | [8] -0.052 | [9] 0.008 | [10] 0.031 | [11] 0.015 | [12] -0.012 | [13] -0.02 | [14] -0.015 | [15] -0.014 | [16] 0.052 | [17] -0.017 | [18] -0.028 | [19] 0.022 | [20] -0.029

MYO19 (UniProt Q96H55)
inactive: [1] -0.054 | [2] -0.138 | [3] -0.025 | [4] 0.041 | [5] 0.072 | [6] -0.035 | [7] 0.044 | [8] 0.006 | [9] -0.013 | [10] 0.012 | [11] -0.027 | [12] 0.084 | [13] -0.031 | [14] 0.006 | [15] -0.16 | [16] 0.038 | [17] -0.091 | [18] -0.067 | [19] 0.094 | [20] -0.086

MUL1 (UniProt Q969V5)
inactive: [1] -0.059 | [2] -0.012 | [3] 0.03 | [4] 0.042 | [5] 0.054 | [6] 0.009 | [7] -0.039 | [8] -0.007 | [9] 0.02 | [10] 0.003 | [11] 0.033 | [12] 0.047 | [13] 0.004 | [14] -0.064 | [15] -0.054 | [16] -0.011 | [17] -0.014 | [18] -0.06 | [19] -0.027 | [20] -0.02

MYL4 (UniProt P12829)
inactive: [1] 0.009 | [2] 0.011 | [3] 0.041 | [4] 0.037 | [5] -0.02 | [6] 0.018 | [7] 0.027 | [8] 0.029 | [9] 0.074 | [10] 0.019 | [11] 0.114 | [12] -0.018 | [13] -0.006 | [14] -0.014 | [15] -0.005 | [16] -0.04 | [17] -0.015 | [18] 0.049 | [19] 0.037 | [20] -0.034

N4BP1 (UniProt O75113)
inactive: [1] -0.026 | [2] -0.031 | [3] -0.002 | [4] 0.003 | [5] -0.005 | [6] -0.023 | [7] 0 | [8] -0.017 | [9] -0.038 | [10] 0.014 | [11] 0.022 | [12] -0.069 | [13] 0.011 | [14] -0.01 | [15] 0.018 | [16] 0.051 | [17] 0.042 | [18] 0.031 | [19] 0.006 | [20] -0.019

NAGA (UniProt P17050)
inactive: [1] 0.009 | [2] -0.233 | [3] -0.032 | [4] 0.048 | [5] 0.058 | [6] -0.006 | [7] -0.055 | [8] 0.012 | [9] 0.023 | [10] 0.016 | [11] -0.097 | [12] 0.028 | [13] -0.015 | [14] -0.016 | [15] -0.036 | [16] -0.006 | [17] -0.015 | [18] -0.026 | [19] 0.009 | [20] -0.017

MVK (UniProt Q03426)
inactive: [1] -0.012 | [2] -0.082 | [3] 0.009 | [4] -0.008 | [5] -0.017 | [6] -0.02 | [7] -0.01 | [8] -0.001 | [9] 0.013 | [10] 0.009 | [11] 0.013 | [12] -0.028 | [13] 0 | [14] -0.017 | [15] -0.011 | [16] 0.002 | [17] 0.001 | [18] -0.007 | [19] 0.004 | [20] -0.038

MYO9B (UniProt Q13459)
inactive: [1] 0.028 | [2] -0.072 | [3] -0.019 | [4] 0.027 | [5] -0.052 | [6] -0.019 | [7] -0.026 | [8] -0.019 | [9] -0.036 | [10] 0.002 | [11] 0.041 | [12] -0.004 | [13] 0.061 | [14] -0.005 | [15] 0.004 | [16] 0.03 | [17] -0.002 | [18] 0.005 | [19] 0.021 | [20] 0.003
